Patent publication US20200297749A1, “Methods and Pharmaceutical Composition for Modulation Polarization and Activation of Macrophages” (priority 2015, published 2020)
At least one structure is not confirmed: it was looked up by name or label, or the drawing left a doubt.

System: NLRP3 inflammasome
Test: IL-1β maturation under P2Y2 inhibition
Assay type: cell-based
Details: addition of autophagy inducer
Procedure: Cells were washed twice with PBS and lysed in appropriated buffer (250 mM NaCl, 0.1% NP-40, 5 mM EDTA, 10 mM Na3VO4, 10 mM NaF, 5 mM DTT, 3 mM Na4P207, 1 mM EGTA, 10 mM Glycerol phosphate, 10 mM Tris-Hcl (pH=7.5) and the protease and phosphatase inhibitors (Roche)). 10-40 μg of protein extracts were run on 4-12% or 10% SDS-PAGE and transferred at 4° C. onto a nitrocellulose membrane (0.2 Micron). After incubation for 2 hours at room temperature with 5% nonfat milk or BSA (Bovine Serum Albumine) in Tris-buffered saline and 0.1% Tween 20 (TBS-Tween), membranes were incubated with primary antibody at 4° C. overnight. […] The primary antibodies against GFP (D5.1), PYK2 (5E2). PYK2Y402*, SRC (36D10), SRCY416*, AMPKα (F6), AMPKT172* (40H9) and LC3A/B were obtained from Cell Signaling. Primary antibodies against IL-1β, CASP1, ASC (TMS1), IRF5, PNX1, Actin and GAPDH were purchased from Abcam. The primary antibodies anti-CAp24 (42-50) and anti-gp120 (2G12) were from NIH (AIDS Research and Reference Reagent Program, Division of AIDS, NIAID). Antibody anti-NLRP3 was from Adipogen (Cryo-2), anti-P2Y2 was from Alomone, anti-ubiquitin (P4D1) was from Santa-Cruz, anti-TOM20 and anti-Flag were from Sigma. […]

CO[C@H]1C[C@@H]2CC[C@@H](C)[C@@](O)(O2)C(=O)C(=O)N2CCCC[C@H]2C(=O)O[C@H]([C@H](C)C[C@@H]2CC[C@@H](O)[C@H](OC)C2)CC(=O)[C@H](C)/C=C(\C)[C@@H](O)[C@@H](OC)C(=O)[C@H](C)C[C@H](C)/C=C/C=C/C=C/1C [rapamycin] was tested, and the “stimulation of IL-1β maturation by P2Y2i” value was “could be avoided”.
